Source: PubChem BioAssay AID651640 (Broad Institute, 2012)
“And” between values parts separate entries of the source, which are not always exact repeats. Identical values can stand only once. The whole screen tested about 350,000 compounds, of which about 6,000 (1.7%) were called active. This list was built around the results that the source calls inconclusive (neither active nor inactive); the mix of calls is not that of the screen. Rule as the data show it: active = CPE inhibition above about 20% (passing the limit was not always enough); inconclusive = no clear call, values can overlap the other calls; tested in BHK-21 cells. More than one record can exist for a structure, and the calls need not agree.

assay: protection of cells from dengue 2 killing – plate reader, single concentration, primary screen (AID 651640); details: DENV2-infected cells, cytopathic effect rescue, at 9.99 µM, stronger effect = higher value;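 also: 0% = median of neutral control wells and 100% = median of positive control wells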

| SMILES | CPE inhibition |
| --- | --- |
| CCCCCc1cc(=O)oc2c(C(CCN(CC)CC)c3ccc(N(C)C)cc3)c(OC)cc(OC)c12 (centres undefined) | inactive: -4.41% |
| O=C(c1ccccc1O)N1N=C(C(F)(F)F)CC1(O)c1ccc([N+](=O)[O-])cc1 (centres undefined) | inconclusive: 41.8% |
| c1ccc2c(c1)nc(N1CCOCC1)c1nnnn12 | inconclusive: 62.8% |
| CC(C)(C)OC(=O)N1CCC(CC2CC(c3cccc(Br)c3)=NO2)(C(=O)O)CC1 (centres undefined) | inconclusive: 39.7% |
| CC1CCc2c(sc(NC(=O)C3=COCCO3)c2C(N)=O)C1 (centres undefined) | inconclusive: 21.8% |
| COc1ccc(NC(=O)CSc2ncnc3sc(C)cc23)cc1 | inconclusive: 44.4% |
| CCN1CCN(CCNC(=O)c2ccc(CS(=O)(=O)c3c(Cl)cccc3Cl)o2)CC1 | inconclusive: 33.4% |
| COc1cc(/C=N\NC(=O)c2ccc(Cl)cc2)ccc1Oc1ccc([N+](=O)[O-])cn1 | inconclusive: 22.9% |
| COc1ccc(S(=O)(=O)NCC(=O)N(CC(=O)NCC2CCCO2)Cc2ccccc2)cc1 (centres undefined) | inconclusive: 44.1% |
| C[C@H]1CN([C@@H](C)CO)C(=O)CCCn2nncc2CO[C@H]1CN(C)Cc1cccc(C(=O)O)c1 | inconclusive: 42.2% |
| Clc1ccc(C2=NNC(=NCc3ccc4c(c3)OCO4)SC2)cc1 | inconclusive: 41.1% |
| O=C(c1ccccc1)N1CC[C@@H]2[C@@H](CO)Nc3ccc(-c4ccccc4F)cc3[C@@H]21 | active: 33.1% |
| COC(=O)c1ccc2nc(-c3ccc(F)cc3)c(Cc3cccc(F)c3)n2c1 | inconclusive: 77.3% |
| Cc1cc(C(=O)Nc2c(C)nn(Cc3ccc(F)cc3)c2C)on1 | inconclusive: 47.6% |
| COc1ccc(NC(=O)Nc2ccc3c(c2)CC(=O)N([C@@H](C)CO)C[C@H](C)[C@@H](CN(C)S(C)(=O)=O)O3)cc1 | inactive: 7.52% |
| COC(C[C@@H]1O[C@H]1[C@H](O)COCc1ccccc1)OC | inconclusive: 24.1% |
| CC(C)C[C@@H](COc1ccccc1)N1CCN(Cc2ccccc2)CCC1=O | active: 28.2% |
| COCC#Cc1ccc([C@@H]2[C@H]3CN(Cc4ccccc4F)CCCCN3[C@H]2CO)cc1 | active: 46.8% |
| O=C(Nc1ccc(Cl)c([N+](=O)[O-])c1)c1ccco1 | inconclusive: 34.6% |
| Cc1ccccc1-n1ncc2c1CC(C)(C)CC2NC(=O)c1snnc1C (centres undefined) | inconclusive: 20.5% |
| CCOC(=O)Cn1cnc2sc(C(=O)OC)c(C)c2c1=O | inactive: 1.62% |
| Cn1c(SCC(=O)NC2CC2)nnc1-c1ccccn1 | inconclusive: 47.4% |
| S=C1NCCN1CC1CCN(CCCC2CCCC2)CC1 | active: 72.5% |
| Cc1noc(C)c1S(=O)(=O)Nc1ccc2c(c1)C(=O)N([C@H](C)CO)C[C@H](C)[C@H](CN(C)C(=O)Nc1ccccc1)OCCCC[C@@H](C)O2 | active: 89% |
| CN(C(=O)Nc1ccc(Cl)cc1Cl)C1CCCC1 | inconclusive: 37.2% |

| SMILES | CPE inhibition |
| --- | --- |
| COc1ccc(NC(=O)Nc2ccc3c(c2)C(=O)N([C@H](C)CO)C[C@@H](C)[C@H](CN(C)S(=O)(=O)c2ccc(Cl)cc2)OCCCC[C@@H](C)O3)cc1 | inconclusive: 64.2% |
| CN(C)CCNc1oc(COc2ccc(-c3ccccc3)cc2)nc1C#N | inactive: 0.695% |
| Cc1ccc(S(=O)(=O)N2[C@H](CC(=O)c3cccc4ccccc34)OC[C@@H]2C)cc1 | inconclusive: 30.4% |
| CC(C)[C@@H]1Cc2[nH][nH]c(=O)c2[C@H](c2ccc(F)cc2)O1 | inconclusive: 55.3% |
| O=c1[nH]c(O)c(/C=C2\C=Nc3ccccc32)[nH]1 | inconclusive: 21.6% |
| C[C@H]1CN([C@@H](C)CO)C(=O)c2cccc(NS(=O)(=O)c3ccccc3)c2O[C@@H]1CN(C)Cc1ccc(C(=O)O)cc1 | active: 30.9% |
| CCCCNC(=O)C[C@@H]1C[C@@]2(C(=O)OC)CC(C)(C)CC=C2N(CCc2ccc(OC)c(OC)c2)C1=O | inactive: 15.5% |
| O=C(NCc1ccccc1)c1ccc2c(c1)C(=O)N(Cc1cccnc1)C2=O | inconclusive: 26% |
| COc1ccc(OCC(=O)Nc2cc(NC(=O)COc3ccc(OC)cc3)cc(C(=O)O)c2)cc1 | inconclusive: 22.3% |
| CCOC(=O)C1CCCN(C(=O)c2cncc(Br)c2)CC1 (centres undefined) | inconclusive: 23.3% |
| Cc1ccc(C(=O)NNC(=O)c2ccc(-n3cncn3)c([N+](=O)[O-])c2)cc1 | inconclusive: 24.2% |
| CN(C)CCNc1ncnc2c1sc1nc(N3CCCC3)c3c(c12)CC(C)(C)OC3 | inactive: -0.885% |
| NCCNc1ccc2nnnn2n1 | inactive: -7.41% |
| CCCCC1Cc2[nH]c(=S)[nH]c(=O)c2C(C(C)C)O1 (centres undefined) | inactive: -4.08% |
| C[C@H]1CN([C@@H](C)CO)C(=O)CCCn2cc(nn2)CO[C@@H]1CN(C)C(=O)Nc1ccc(F)cc1 | inconclusive: 38.5% and active: 44.2% |
| CO[C@H]1CN(C)C(=O)c2cc(NC(C)=O)ccc2OC[C@H](C)N(C(=O)C2CCCCC2)C[C@@H]1C | inactive: -0.523% |
| Cc1ccc(S(=O)(=O)N[C@H]2CC[C@H](CCNC(=O)Nc3ccc(Cl)cc3)O[C@@H]2CO)cc1 | inactive: -4.13% |
| O=C(O)c1ccc(S(=O)(=O)N2CCC(NC(=O)C3CCCCC3)CC2)cc1 | inactive: -3.06% |
| COc1ccc(NC(=O)CN(C)S(=O)(=O)c2ccc3c(c2)CC(C)N3C(C)=O)c(OC)c1 (centres undefined) | inconclusive: 20.2% |
| O=C(CCNC(=O)c1ccccc1Cl)Nc1ccc2c(c1)OCCO2 | inconclusive: 21.1% |
| Cc1cc(C)n(-c2n[nH]c(=O)c3ccccc23)n1 | inactive: 0.648% |
| COc1ccc(OC)c(-c2cc(C(=O)N/N=C(\C)c3cccnc3)c3ccccc3n2)c1 | inconclusive: 63.9% |
| COc1cccc(NC(=O)N[C@@H]2CC[C@@H](CC(=O)N3CCOCC3)O[C@@H]2CO)c1 | active: 64.1% |
| CCC(=O)N1[C@@H]2c3ccc(C4=CCCCC4)c(=O)n3C[C@H]1[C@H](CO)[C@H]2C(=O)N[C@H](C)c1ccccc1 | active: 92.7% |
| COc1ccc(CN2C(=O)C(CC(=O)NCC3CCCCC3)CC(C(=O)N3CCOCC3)=C2C)cc1 (centres undefined) | inconclusive: 53.7% |

| SMILES | CPE inhibition |
| --- | --- |
| C[C@@H]1CCCCO[C@H](CN(C)CC2CC2)[C@@H](C)CN([C@H](C)CO)C(=O)c2cc(NC(=O)Nc3ccc4c(c3)OCO4)ccc2O1 | inactive: 7.27% |
| O=C(CCc1nnc2ccc(N3CCCC3)nn12)Nc1ccc(F)c(F)c1 | inconclusive: 51.3% |
| CC(C)NC(=O)Nc1ccc2c(c1)C(=O)N([C@@H](C)CO)C[C@@H](C)[C@@H](CN(C)Cc1ccc(C(=O)O)cc1)O2 | active: 24.6% |
| CCCN(Cc1nnc(-c2ccccc2Cl)o1)C(=O)c1ccc(C)c(S(=O)(=O)N2CCOCC2)c1 | inconclusive: 21.9% |
| C=C(C)COc1ccc2c(C)c(CC(=O)N3C[C@H]4C[C@@H](C3)c3cccc(=O)n3C4)c(=O)oc2c1 | inconclusive: 71.5% |
| O=C(Nc1ccccc1)N[C@@H]1CC[C@H](CCn2cc(-c3ccccc3F)nn2)O[C@H]1CO | inconclusive: 26.7% |
| C[C@H]1CN([C@@H](C)CO)C(=O)Cc2cc(NS(=O)(=O)c3ccccc3)ccc2O[C@H]1CN(C)S(=O)(=O)c1cccs1 | inconclusive: 25.7% |
| CN1C(=O)c2cc(NC(=O)C3CCC3)ccc2OC[C@H]2O[C@H](CC(=O)NCCc3ccncc3)CC[C@H]21 | inconclusive: 35.3% |
| O=C(C1CCOCC1)N1CC(=O)N2[C@@H](CO)[C@H](c3ccc(C#CCc4ccccc4)cc3)[C@@H]2C1 | inconclusive: 26.7% |
| CCCNC(=O)N1CC2(C1)[C@@H](c1ccccc1)[C@@H](CO)N2CC1CC1 | inactive: -1.77% |
| N#Cc1ccc(-c2ccc3c(c2)[C@@H]2[C@@H](CCN2C(=O)c2ccccc2F)[C@@H](CO)N3)cc1 | inactive: 12% |
| C[C@H](CO)N1C[C@H](C)[C@@H](CN(C)C(=O)c2ccccc2)Oc2ncc(/C=C/c3ccccc3)cc2C1=O | inactive: 11% |
| COc1ccc(C2=Nc3ccccc3N(C(=O)c3ccc(C(F)(F)F)cc3)C2C(=O)NCc2ccccc2)cc1 (centres undefined) | inconclusive: 22.5% |
| O=C(CCN1CCN(c2ccccc2)CC1)c1ccc(Br)cc1 | inconclusive: 23.4% |
| CCc1ccccc1NC(=O)CN1CCN(C(=O)CNC(=O)Cc2cccc3ccccc23)CC1 | inconclusive: 57.7% |
| O=S(=O)(c1ccc(F)cc1)N1CCCCN2[C@H](CO)[C@H](c3ccc(-c4cncnc4)cc3)[C@H]2C1 | inactive: 2.57% |
| CN(C)CC(=O)N1[C@H](C#N)[C@H](c2ccc(-c3ccc(C(=O)N(C)C)cc3)cc2)[C@H]1CO | active: 37.5% |
| CC(=O)C1=C(O)CC(c2ccccc2)CC1=NCCc1c(C)[nH]c2ccc(C)cc12 (centres undefined) | inconclusive: 32.9% |
| COc1ccc(C(CNC(=O)CCNC(=O)c2ccc(Br)cc2)N2CCOCC2)cc1 (centres undefined) | active: 38.9% |
| CCCCc1c(-c2ccc(Br)cc2)ncn1CCc1ccccc1OC | inconclusive: 22.1% |
| COc1cc(/C=C(/C#N)C(=O)NCc2ccccc2)cc(OC)c1OC | active: 67.3% |
| C[C@@H]1CN([C@@H](C)CO)C(=O)c2cc(-c3cccc(F)c3)cnc2O[C@@H]1CN(C)C(=O)C1CCCCC1 | inactive: 9.77% |
| CC(C)N(C[C@@H]1[C@H](c2ccccc2)[C@@H](CO)N1S(C)(=O)=O)C(=O)CN(C)C | active: 54.5% |
| Cc1cccc(COC[C@H](Cc2ccccc2)N2CCN(C(=O)c3cccc(C)c3)CCC2=O)c1 | inconclusive: 20.1% |
